From publication PMC10367555
No constants are given. Whether binding was seen depends on the method and setting. In cells and extracts the contact can be indirect. Some results given as binding are weak or reduced against the parent protein; the word gives no strength. For some assays here: Where a sequence is shown, tags or fusion partners need not be part of it. Blank lines part the entries; values can stand above or below the binder they belong to.

Sequences of proteins named here, by UniProt entry; tags and fusion partners are left off. Residues count along the entry.
UniProt P34741, residues 19-201: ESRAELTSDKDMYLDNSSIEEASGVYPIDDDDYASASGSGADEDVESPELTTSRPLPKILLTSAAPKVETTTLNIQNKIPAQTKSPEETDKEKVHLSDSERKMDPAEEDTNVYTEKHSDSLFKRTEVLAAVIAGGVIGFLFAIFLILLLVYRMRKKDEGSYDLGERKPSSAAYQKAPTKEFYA

Key:
[1] = biological target: FLAG-tagged-SDC2 (Syndecan-2) (UniProt P34741); experiment: co-IP; HEK293T cells, transiently transfected for 48 h; RIPA-weak lysis buffer (1% NP-40, 0.25% sodium deoxycholate); anti-FLAG magnetic beads at 4 °C overnight; western blotting
SDC2 in GC cells = SDC2 in GC cells (UniProt P34741); experiment: co-IP; GC cells (AGS named for USP14); RIPA-weak lysis buffer (1% NP-40, 0.25% sodium deoxycholate); anti-FLAG magnetic beads at 4 °C overnight; western blotting

binding [1]: binds
B1: PH domain of PDK1 (HA-tagged-PDK1 recombinant construct) (domain or fragment, UniProt O15530 409-556)
chain: GSNIEQYIHDLDSNSFELDLQFSEDEKRLLLEKQAGGNPWHQFVENNLILKMGPVDKRKGLFARRRQLLLTEGPHLYYVDPVNKVLKGEIPWSQELRPEAKNFKTFFVHTPNRTYYLMDPSGNAHKWCRKIQEVWRQRYQSHPDAAVQ

binding (SDC2 in GC cells): binds
B2: PDK1 in GC cells (protein, UniProt O15530 1-556)
chain: MARTTSQLYDAVPIQSSVVLCSCPSPSMVRTQTESSTPPGIPGGSRQGPAMDGTAAEPRPGAGSLQHAQPPPQPRKKRPEDFKFGKILGEGSFSTVVLARELATSREYAIKILEKRHIIKENKVPYVTRERDVMSRLDHPFFVKLYFTFQDDEKLYFGLSYAKNGELLKYIRKIGSFDETCTRFYTAEIVSALEYLHGKGIIHRDLKPENILLNEDMHIQITDFGTAKVLSPESKQARANSFVGTAQYVSPELLTEKSACKSSDLWALGCIIYQLVAGLPPFRAGNEYLIFQKIIKLEYDFPEKFFPKARDLVEKLLVLDATKRLGCEEMEGYGPLKAHPFFESVTWENLHQQTPPKLTAYLPAMSEDDEDCYGNYDNLLSQFGCMQVSSSSSSHSLSASDTGLPQRSGSNIEQYIHDLDSNSFELDLQFSEDEKRLLLEKQAGGNPWHQFVENNLILKMGPVDKRKGLFARRRQLLLTEGPHLYYVDPVNKVLKGEIPWSQELRPEAKNFKTFFVHTPNRTYYLMDPSGNAHKWCRKIQEVWRQRYQSHPDAAVQ
